Measured values as given in PubChem BioAssay AID493014 (National Center for Advancing Translational Sciences (NCATS), 2011).
The list shows a part of the results. The main result of the screen is listed elsewhere. These columns were measured beside it and carry no call. Compounds called inactive in the main read-out are mostly missing here. The note in brackets gives the kind of curve behind each potency; many fits are weak.

Assay: qHTS Assay to Find Inhibitors of Chronic Active B-Cell Receptor Signaling
Details: ABC-DLBCL IkBa-CBG/CBR reporter, luminescence ratio (green luciferase fused to IkBa over red control in TMD8 lymphoma cells), 4 h
Procedure, shortened: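 Doxycycline induced both beetle luciferases in TMD8 lymphoma cells; IKK-driven degradation limits the IkappaBalpha-fused green signal, while red luminescence normalises for cell number and nonspecific effects. Compounds tested up to 46 uM, 4 hrs.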

[1] = measured here: CBR red luminescence, cell number
[2] = measured here: IkBa-CBG green luminescence

SMILES | AC50 [1] | AC50 [2]
O=C(Nc1ccc([N+](=O)[O-])cc1)c1ccc(Cn2cc([N+](=O)[O-])cn2)cc1 | 14.1 µM [falling, partial curve, poor fit] | 
CC(=O)Nc1ccc(C(=S)NCCCO)cc1 | 39.8 µM [rising, partial curve, poor fit] | 
Cc1cc(C(=O)Nc2ccc3ccccc3c2)oc1C | 22.4 µM [falling, single point] | 
CC(C)NC(=O)COC(=O)c1ccc(O)cc1 | 3.16 µM [rising, partial curve, poor fit] | 
Cc1ccc2nc(N3C(=O)C(O)=C(C(=O)c4ccco4)C3c3cccs3)sc2c1 (configuration not stated) | 14.1 µM [falling, partial curve, poor fit] | 
COc1cc(C(C(=O)NC2CCCC2)N(C(=O)c2snc(C(N)=O)c2N)C2CCCC2)cc(OC)c1OC (configuration not stated) | 14.1 µM [rising, single point] | 
CCOC(=O)c1c(C)nc2sc3c(=O)n(-c4ccc(C(C)=O)cc4)cnc3c2c1-c1ccc(Cl)cc1 | 29.1 µM [falling, single point] | 
COc1cccc(NC(=O)CN2C(=O)c3cccnc3Oc3ccc(Cl)cc32)c1 | 0.891 µM [falling, full curve, poor fit] | 
Cc1ccc(CNC(=O)Cn2ccc3cc(S(=O)(=O)N4CCCCCC4)ccc32)cc1 | 35.5 µM [falling, single point] | 
CCOC(=O)c1c(NC(=O)Nc2cccc(Cl)c2)sc(C)c1C | 2.06 µM [rising, partial curve, poor fit] | 
CS(=O)(=O)c1ccc(Cl)c(NC(=O)CSc2nnc(C3CC3)n2C2CC2)c1 | 29.1 µM [rising, single point] | 
CCCCN(C)C(=O)Cn1ncc2c3ccccc3n(CCC)c2c1=O | 11.2 µM [falling, partial curve] | 
CC(=O)c1cccc(-n2nnnc2SCC(=O)Nc2cccc(NC(=O)c3ccco3)c2)c1 | 2 µM [falling, full curve] | 
C/C(CC(=O)Nc1cc(C)ccn1)=N\NC(=O)c1cccc(F)c1 | 11.2 µM [falling, partial curve, poor fit] | 
CCc1cccc(NC(=O)Cc2cn(C)c3ccccc23)c1 | 35.5 µM [falling, single point] | 
Cc1ccc2c(c1)/C(=C/c1ccccc1C)C(=O)N2 | 31.6 µM [falling, single point] | 
Cc1ccc(NC(=S)N2CCSC2c2cccs2)cc1 (configuration not stated) | 35.5 µM [rising, single point] | 20 µM [falling, partial curve, poor fit]
Cc1cc(S(=O)(=O)N(Cc2cccs2)Cc2ccccc2F)ccc1-n1cnnn1 | 29.1 µM [falling, single point] | 23.1 µM [rising, partial curve, poor fit]
O=C(NCCc1ccc2c(c1)OCCO2)c1cc2ccccc2o1 | 25.1 µM [falling, single point] | 
S=C(Nc1cccnc1)NC1CCCC1 | 4.61 µM [rising, full curve, poor fit] | 

SMILES | AC50 [1] | AC50 [2]
COc1ccc(S(=O)(=O)N2CCc3ccccc32)cc1C(=O)NCc1ccco1 | 5.8 µM [falling, partial curve] | 
CC[n+]1c(/C=C/c2ccc(N(C)C)cc2)ccc2ccccc21 | 29.1 µM [rising, single point] | 
Cc1ccc(C)c(S(=O)(=O)c2c[nH]c(=S)[nH]c2=O)c1 | 0.562 µM [falling, full curve, poor fit] | 
COc1ccc(C)c2sc(N(CCN(C)C)C(=O)c3ccc4ccccc4c3)nc12 | 8.91 µM [falling, partial curve] | 
COc1ccc2[nH]cc(CCNC(=O)C3CCCNC3=O)c2c1 (configuration not stated) | 0.58 µM [rising, full curve, poor fit] | 
COC(=O)c1ccc(OC)c(Cn2c(=O)n(C)c(=O)c3sccc32)c1 | 14.1 µM [rising, partial curve] | 
COc1ccc(OC)c(NC(=O)C2CCCN(S(=O)(=O)c3cccc4nsnc34)C2)c1 (configuration not stated) | 3.98 µM [rising, single point] | 
COc1ccc(N(CC(=O)N/N=C/c2cccs2)S(=O)(=O)c2ccccc2)cc1 | 35.5 µM [falling, single point] | 
CCN1C(=O)C(CC(=O)Nc2ccc(Br)cc2)N(CCCc2ccccc2)C1=S (configuration not stated) | 35.5 µM [falling, single point] | 
CCCC(=O)c1cc(F)c(N2CCOCC2)cc1C | 10 µM [rising, partial curve] | 
O=S(=O)(Nc1ccc2nc(-c3ccc(Br)o3)[nH]c2c1)c1ccccc1 | 0.631 µM [falling, full curve, poor fit] | 
O=c1[nH]c(/C=C/c2ccccc2)c([N+](=O)[O-])c(=O)[nH]1 | 11.2 µM [falling, partial curve] | 
CCCC(=O)Nc1ccc(-c2csc(-c3cccnc3)n2)cc1 | 0.178 µM [rising, full curve, poor fit] | 
Cc1cc2nn(-c3ccc(Cl)cc3)nc2cc1N | 15.8 µM [falling, single point] | 
CCOC(=O)c1ccc(N2C(=O)C(CC(N)=O)N(CCc3ccc(OC)c(OC)c3)C2=S)cc1 (configuration not stated) | 35.5 µM [falling, single point] | 
O=C(NCCCc1ccccc1)c1c(O)nc2sccn2c1=O | 7.31 µM [falling, partial curve, poor fit] | 
Cc1ccc(S(=O)(=O)Nc2cccc(Cl)c2)cc1NC(=O)C1CC1 | 29.1 µM [falling, single point] | 
O=C(/C=C/c1ccc(S(=O)(=O)N2CCOCC2)cc1)OCC(=O)c1ccc([N+](=O)[O-])cc1 | 2.82 µM [rising, single point] | 
COc1ccc(NC(=O)Nc2cc(C)ccc2OC)cc1 | 6.51 µM [rising, full curve, poor fit] | 
Cc1ccc2oc(C(=O)NCCC3CCCCO3)c(C)c2c1 (configuration not stated) | 6.31 µM [rising, single point] | 
